{"source": "patent EP3800274A1", "about": "“METHOD FOR PRODUCING BIOMASS OR DERIVATIVES THEREOF” (priority 2019, dated 2021)", "origin": "cited, not measured here", "key": {"SRB culture": {"test_system": "SRB culture", "conditions": "Reis et al., 1992"}, "Desulfovibrio vulgaris": {"test_system": "Desulfovibrio vulgaris", "conditions": "Caffrey & Voordouw, 2010"}}, "note": "“And” between values parts separate entries of the source, which are not always exact repeats. Equal values may be shown once. At least one compound was matched to its structure with a doubt left."}
{"smiles": "S", "note": "[hydrogen sulfide]", "values": [{"measurement": "concentration that completely inhibited a SRB culture growth", "setting": "SRB culture", "result": "547 mg/L and 16.1 mM"}, {"measurement": "levels that can give rise to a decreased growth rate and less efficient biomass production", "setting": "Desulfovibrio vulgaris", "result": "above 5 mM"}]}
